For this assay, the target named is T1, GABPα (UniProt Q06546).
T1 sequence: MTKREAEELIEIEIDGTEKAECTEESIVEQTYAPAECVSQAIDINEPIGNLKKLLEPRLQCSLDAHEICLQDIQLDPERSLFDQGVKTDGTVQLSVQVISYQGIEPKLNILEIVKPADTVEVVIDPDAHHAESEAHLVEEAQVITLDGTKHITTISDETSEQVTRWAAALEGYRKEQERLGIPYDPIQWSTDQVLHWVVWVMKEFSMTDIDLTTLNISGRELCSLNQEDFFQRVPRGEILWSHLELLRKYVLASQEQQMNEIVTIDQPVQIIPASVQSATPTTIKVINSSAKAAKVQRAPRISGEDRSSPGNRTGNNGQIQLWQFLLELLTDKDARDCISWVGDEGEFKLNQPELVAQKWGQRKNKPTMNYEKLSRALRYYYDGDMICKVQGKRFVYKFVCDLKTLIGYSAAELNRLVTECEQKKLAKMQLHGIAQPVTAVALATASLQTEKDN
The experiment in a line: native gel or EMSA; in vitro translated GABPα, β and γ mixed with the 32P-labelled −51 ETS DNA probe; the protein complexes are seen on the DNA; binding buffer 2 mM HEPES-NaOH pH 7.9, 2% glycerol, 0.01 mM EDTA, 0.25 mM DTT, 5 mM KCl, 0.1 mg/ml BSA, poly dI-dC; 40 min at 4°C; 4% native polyacrylamide gel, 0.5× TBE; supershift with anti-GABP antibodies. For orientation: A gel shift assay detects complexes by their altered migration in electrophoresis.

Results are given in words; binding and its absence hold for the method and conditions named. A result given as binding can be weak or reduced; the word gives no strength.

Turning to GABPγ, the binding entry is “binds”.
